# Percent effect of library compounds

Values are the deposited “Percent Effect”, in %. The record does not define 0% and 100%; most values in the screen are far below 50% and negative numbers occur (in some assays of this library far below -100). The compounds are a random part of those screened. Two or more numbers in one place are separate tests of the same structure; such repeats can differ widely.

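Whole-cell growth test on Mycobacterium tuberculosis, read after 3 days in glucose-containing 7H9 medium; the read-out is not stated. Tested at 50 µM. Direction is inferred from retests: higher values go with more growth inhibition. Of about 69,000 compounds tested this way, about 760 (1.1%) reached 50% or more in at least one test.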

| compound | effect |
|---|---|
| `CC(Oc1ccccc1C(F)(F)F)C(=O)NCC(N)=O` (stereo not drawn) | 6.277 |
| `CC(CNC(=O)c1c[nH]nn1)Oc1ccc(Cl)cc1` (stereo not drawn) | 7.544 |
| `Cc1c(Br)cc2c(c1C)OCC(N(C)C)C2=O` (stereo not drawn) | -52.31 |
| `N#Cc1cnn(CCN2CCOC(CNc3cccnn3)C2)c1` (stereo not drawn) | -23.09 & -7.454 |
| `CN(C)S(=O)(=O)N1CCN(c2nccc(C(F)(F)F)n2)CC1` | 1.792 & 20.89 |
| `CC(C)OCCNC1(c2ccc(F)cc2)CCOCC1` | -5.813 |
| `CCn1c(CN2CCCN(C(=O)OC)CC2)nc2c(F)cccc21` | 8.227 |
| `N#Cc1cccnc1NCCNC(=O)N1CCCC(C(F)(F)F)C1` (stereo not drawn) | 17.54 |
| `[H][C@@]12CCN(C(=O)c3c(C)noc3C)C[C@@]1([H])O[C@@H](c1ccnc(C)n1)C2` | -10.04 |
| `COc1cccc(CN2CC(O)CN(C(=O)C(C)(C)C)CC2=O)c1OC` (stereo not drawn) | -54.03 |
| `CC(C)N(CCNc1nc(C2CCCC2)nc2c1cnn2C)C(C)C` | 79.72 |
| `CC(C(=O)N1CCN(Cc2ccc3c(c2)OCO3)CC1)n1ccnc1` (stereo not drawn) | -6.703 |
| `O=C(O)C(F)(F)F.O=C(c1cscn1)N1CCc2c(COCC3CC3)cncc2C1` | -6.551 |
| `[H][C@]12CN(C(=O)NC(C)C)CCN1C(=O)N(Cc1ccc(F)cc1)C2` | -3.853 & -2.442 |
| `CN(C)CCO[C@H]1C[C@@H](O)C12CCN(c1cnccn1)CC2` | 26.93 |
| `CN(CCO)Cc1nnc(C2CCN(C(=O)c3cc[nH]c3)CC2)n1C` | -18.59 |
| `Br.Cn1cc(CN2CCC(c3cc(COc4cccc(Cl)c4)[nH]n3)C2)cn1` (stereo not drawn) | 32 |
| `CC(NCc1cccc2c1OCCO2)c1cc2c(cc1Br)OCCO2` (stereo not drawn) | 11.48 |
| `[H][C@@]12CS(=O)(=O)C[C@]1([H])N(C(=O)c1cc(C(C)C)on1)CCN2CC=C(C)C` | -17.77 |
| `CC(=O)Cn1ncc(N2CCOCC2)cc1=O` | 13.51 & -4.643 |
| `CC1CCN(Cc2c(C(C)C)[nH]c3ncccc23)CC1` | -19.04 |
| `Cc1cc(CN(C)C(=O)C2CCC(=O)N(CC3CCCCC3)C2)n[nH]1` (stereo not drawn) | -0.05716 |
| `COCCC(=O)Nc1ccnn1-c1ccccc1` | -30.93 |
| `CCOC(=O)N1CCC2(CCCN(C3CCOCC3)C2=O)C1` (stereo not drawn) | -5.294 |
| `O=C(CN1CCC(c2ccccc2)C1)NCC(F)(F)F` (stereo not drawn) | 19.27 |
| `CCN(C(=O)CN1CCCN(c2nc(C)ns2)CC1)C1CC1` | -4.527 |
| `Cc1nc(C(=O)N2CCCC2c2noc(C)n2)c[nH]1` (stereo not drawn) | -23.02 |
| `O=C(O)COc1ccc(CN2CCCC(CCc3ccccc3)C2)cc1` (stereo not drawn) | -1.594 & -22.01 |
| `Cn1cc(-c2cnc(N3CCOCC3)nc2)cc1C(=O)O` | -5.631 |
| `Cc1nonc1C1CCCN1C(=O)c1cc2n(n1)CCCN(C(C)C)C2` (stereo not drawn) | -3.68 |
| `Cc1c(C(=O)N(CCN(C)C)Cc2ccccn2)oc2ccccc12` | 24.9 |
| `CS(=O)(=O)N1CCN(CC2CC2)c2ncccc2C1` | -3.144 & -42.23 |
| `Cn1ncc2c(=O)[nH]c(CN3CCCC3CC(C)(C)C)nc21` (stereo not drawn) | -6.474 |
| `CSCc1cc(F)ccc1CNCc1cccc(O)c1` | 26.61 |
| `Cc1ccccc1N(CC(=O)NCCc1nnc2n1CCC2)S(C)(=O)=O` | 13.45 |
| `O=C(NCCNc1cncc(Br)c1)c1ccc(O)cc1` | 45.53 |
| `CCN(Cc1nc(C)no1)C(=O)C1CC(=O)N(Cc2ccccn2)C1` (stereo not drawn) | 6.076 |
| `O=S1(=O)NC(c2ccnc(N3CCOCC3)n2)=Nc2ccccc21` | 21.78 |
| `CN1CCN(Cc2cccc(NCc3ncc[nH]3)c2)CC1` | -33.32 |
| `Cc1cn2c(n1)CCC(NC(=O)Cn1cncn1)C2` (stereo not drawn) | 21.61 |
| `[H][C@@]12CS(=O)(=O)C[C@]1([H])N(C(=O)Nc1ccccc1Cl)CCN2CCC` | -25.87 |
| `CC1(C)CN(Cc2csc(CS(C)(=O)=O)n2)Cc2ccccc21` | 4.072 |
| `CC(C)(C)Oc1ccc(C(=O)N2CCOCC2c2ncon2)cc1` (stereo not drawn) | -23.54 |
| `CC1CCN(C(=O)C2(Cc3cc(C4CCOC4)no3)CCNCC2)CC1.Cl` (stereo not drawn) | 15.42 |
| `O=C(C1CC1)N(CCc1ccccc1)C1CCOC1` (stereo not drawn) | 25.14 & -0.2319 |
| `NC(=O)CN1CCN(C(=O)c2cc(Cl)cc3cccnc23)CC1` | -3.556 |
| `O=C(O)C(F)(F)F.O=C(c1ccco1)N1CCCC2(CN(Cc3ccsc3)CCO2)C1` (stereo not drawn) | 9.327 & -2.476 |
| `O=C(c1cccn1-c1ccc2c(c1)OCCO2)N1CCCC1` | 8.434 |
| `Cc1cc(C(=O)NCCN2CCC(C)CC2)nn1C(C)(C)C` | 14.58 |
| `CC(=O)N1CCC2(CC1)C(=O)N(c1cccnc1)c1ccc(F)cc12` | -8.933 & -2.73 |
| `O=C(CSc1ccccc1)Nc1cnn(CC(=O)N2CCCO2)c1` | 10.8 |
| `CN(Cc1cccc(OCCO)c1)Cc1cccc2ncccc12` | -6.23 & -28.92 |
| `O=C(CCNc1ncccn1)N1CCCC(n2cccn2)C1` (stereo not drawn) | -2.513 |
| `Cc1nc(CC2CCCN(Cc3nc4ccccc4c(=O)[nH]3)C2)no1` (stereo not drawn) | -11.98 & 8.961 |
| `CNC(=O)c1cccc(C2CNCCN2C)c1` (stereo not drawn) | -8.296 |
| `CC(C)(C)CCN1CCN(Cn2nccc2-c2cccnc2)CC1` | -25.11 |
| `COc1ccnc(CNc2cc(C3CC3)ncn2)c1` | 1.824 & 21.14 |
| `CNC(=O)COc1c(C(C)=O)ccc(Cl)c1Cl` | -2.371 |
| `COc1ccc(CNC2CCCN(Cc3noc(C)n3)C2)cc1F` (stereo not drawn) | -36 |
| `NC(=O)CN1CC2(CCC1=O)CCN(Cc1cc(F)ccc1Cl)CC2` | 5.855 |
| `CCc1ccc(NC(=O)N2Cc3c(CN(C)C)nn(C)c3C2)cc1.O=C(O)C(F)(F)F` | -13.56 & -3.976 |
| `Cn1ccnc1CN1CCC2(CC1)CCN(Cc1ccoc1)C2.O=C(O)C(F)(F)F.O=C(O)C(F)(F)F` | 11.59 & 0.06477 |
| `COCCN(C)C[C@@H]1CN(C(=O)c2sc3ccccc3c2C)C[C@@H]1CO` | -19.14 |
| `CCOc1ccccc1N1CCN(c2nnc(C)o2)CC1` | -13.47 |
| `COc1ccccc1CC(=O)NCCCN1CCCC1C(=O)N(C)C` (stereo not drawn) | 9.495 & 1.836 |
| `COC(=O)CCNC(=O)c1cc(-c2ccc(OC)cc2)nn1C` | 16.34 & 12.22 |
| `CC1c2ncc(COCC3CCOCC3)n2CCN1S(C)(=O)=O` (stereo not drawn) | 5.945 & -8.878 |
| `CCOC(=O)CNC(=O)NCc1cccn1Cc1ccc(F)cc1` | -30.27 |
| `O=S(=O)(c1c(Cl)nc2sccn12)N1CCC2(CCNCC2)C1` | 3.129 |
| `Cc1nc2sccn2c1C(=O)N1CCc2[nH]cnc2C1` | 3.097 |
| `Cc1cc(C(=O)N2CCCC(Cn3cc(C4CC4)nn3)C2)nc(C)n1` (stereo not drawn) | -16.69 |
| `COc1ccc(NC(=O)C(C)n2cncn2)cn1` (stereo not drawn) | -92.96 |
| `CCc1nnc(Nc2cccc(C3CCN(C(=O)CO)CC3)n2)s1` | -4.221 |
| `C=C(C)COc1cccc(C(=O)N(C)C(C)c2ccncn2)c1` (stereo not drawn) | -19.84 |
| `COc1cc(CN2CC[C@@H](N3CCCCCC3)[C@H](O)C2)cc(Cl)c1OC` | 24.72 |
| `COc1cccc(OC2CN(C(=O)c3cc(CC(C)C)nn3C)C2)c1` | 30.91 |
| `CCOc1c(Br)cc(CNC(C)c2nnc3n2CCC3)cc1OC` (stereo not drawn) | -15.62 |

For reference, 7 entries once more:

compound	effect
[H][C@@]12CS(=O)(=O)C[C@]1([H])N(C(=O)c1cc(C(C)C)on1)CCN2CC=C(C)C	-17.77
O=C(NCCNc1cncc(Br)c1)c1ccc(O)cc1	45.53
[H][C@]12CN(C(=O)NC(C)C)CCN1C(=O)N(Cc1ccc(F)cc1)C2	-3.853 & -2.442
O=S1(=O)NC(c2ccnc(N3CCOCC3)n2)=Nc2ccccc21	21.78
Cc1cn2c(n1)CCC(NC(=O)Cn1cncn1)C2 (stereo not drawn)	21.61
COC(=O)CCNC(=O)c1cc(-c2ccc(OC)cc2)nn1C	16.34 & 12.22
CN(Cc1cccc(OCCO)c1)Cc1cccc2ncccc12	-6.23 & -28.92

Data taken from ChEMBL document CHEMBL3988442, “University of Dundee, Small-Polar-MMV Screening Library” (2021).